## Primary screen of a compound library

The chains behind the UniProt entries cited, without tags or fusion partners.
UniProt E9BF75, entry or part of it: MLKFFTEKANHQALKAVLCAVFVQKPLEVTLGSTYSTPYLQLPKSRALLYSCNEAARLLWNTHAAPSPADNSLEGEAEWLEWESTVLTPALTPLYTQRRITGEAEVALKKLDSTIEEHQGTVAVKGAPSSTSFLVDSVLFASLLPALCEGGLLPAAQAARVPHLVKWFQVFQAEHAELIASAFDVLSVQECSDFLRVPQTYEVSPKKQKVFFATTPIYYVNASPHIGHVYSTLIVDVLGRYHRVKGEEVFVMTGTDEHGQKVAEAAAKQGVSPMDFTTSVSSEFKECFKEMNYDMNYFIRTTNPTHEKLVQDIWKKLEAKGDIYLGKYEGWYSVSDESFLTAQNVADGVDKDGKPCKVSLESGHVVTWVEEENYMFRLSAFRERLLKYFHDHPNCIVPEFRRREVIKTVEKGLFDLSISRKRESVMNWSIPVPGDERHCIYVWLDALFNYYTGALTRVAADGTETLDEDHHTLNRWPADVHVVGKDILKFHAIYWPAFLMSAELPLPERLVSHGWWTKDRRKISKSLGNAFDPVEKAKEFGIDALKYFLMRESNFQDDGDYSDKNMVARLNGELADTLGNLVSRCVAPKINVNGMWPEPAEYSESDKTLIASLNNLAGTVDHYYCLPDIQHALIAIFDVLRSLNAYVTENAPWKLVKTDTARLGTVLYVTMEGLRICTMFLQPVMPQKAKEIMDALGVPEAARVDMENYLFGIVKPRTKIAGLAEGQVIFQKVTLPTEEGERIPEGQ

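Methionyl-tRNA synthetase (putative), Leishmania donovani (UniProt E9BF75). Primary screen of methionyl-tRNA synthetase; the read-out is not stated. The test concentration is not given. The values are filed as inhibition. About 68,000 compounds were tested under these conditions; 0.035% (about 24) showed 50% or more at least once.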

Results are percentages, as filed.
The record does not define 0% and 100%; most values in the screen are far below 50% and negative numbers occur (in some assays of this library far below -100).
This is an unselected part of the compounds tested.

| compound | inhibition |
|---|---|
| `CC(C)(C)c1coc([C@@H]2COCCN2Cc2c[nH]cn2)n1` | 7.519 |
| `Cc1cccc(N2CCOCC3(C2)CN(c2ccoc2)C(=O)CO3)n1` (configuration not stated) | 3.846 |
| `O=C(NCc1ccc2c(c1)OCCO2)N1CCC(CO)CC1` | 8.273 |
| `Cc1ccn(-c2ccc(NCc3cccnc3N3CCCCC3)nn2)n1` | 10.96 |
| `CC(C)Oc1ncccc1CNC(=O)c1cnccn1` | 16.87 |
| `Cc1noc(C)c1CN1C[C@@H]2CCCO[C@@H]2[C@H](Nc2ccccn2)C1` | 9.137 |
| `COc1cc(Cl)cc(CN2CCCC(N3CCOCC3)C2)c1OC` (configuration not stated) | 12.7 |
| `COc1ccc(-c2nnc(C(C)N3CCOCC3)o2)cc1` (configuration not stated) | 5.978 |
| `CCn1cnnc1C1CCN(C(=O)c2c(C)oc(C)c2C)CC1` | 16.34 |
| `CN(Cc1cccc(C#N)c1)S(=O)(=O)N1CCOCC1` | 6.266 |
| `CC(C)(C)c1nc(NS(=O)(=O)c2ccccc2F)no1` | 4.789 |
| `c1cc(CNCC2CNc3ccnn3C2)cc(N2CCOCC2)n1` (configuration not stated) | 17.66 |
| `COCCn1ccnc1C1CCCN(c2ncnc3c(C)csc23)C1` (configuration not stated) | 15.65 |
| `Cc1ccc(-c2ncc(C(=O)NCCS(N)(=O)=O)s2)c(C)c1` | 3.922 |
| `COc1cc(CN2CCCC(Nc3cccc(F)c3)C2)cc(OC)c1O` (configuration not stated) | 8.541 |
| `Cc1cc(CNC(=O)NC(C)c2ccc(N3CCOCC3)cc2)no1` (configuration not stated) | 9.449 |
| `Cc1cc2nc(SCC(=O)N3CCCC3)n(-c3ccccc3)c(=O)c2[nH]1` | 7.042 |
| `O=C(Cc1ccc(Br)s1)NCC(=O)Nc1cn[nH]c1` | 28.02 |
| `Cc1cnc(N2CCN(C)CC2)nc1-c1ccnn1C` | 12.99 |
| `O=C(NC1CCN(c2ccccc2OC(F)F)C1)c1c[nH]nn1` (configuration not stated) | 10.28 |
| `CCCc1cc(C(=O)N2CCOC(c3nc(-c4cccs4)no3)C2)no1` (configuration not stated) | 14.34 |
| `O=C(O)CC1CN(S(=O)(=O)c2cccc(F)c2)c2ccccc21` (configuration not stated) | 7.453 |
| `Cc1cnn(CCNCc2csc(-c3ccc(C(N)=O)cc3)n2)c1` | 0.5464 |
| `CCN1C[C@@H]2[C@@H](OC)CCN(C(=O)c3cc(C)nn3CC)[C@@H]2C1` | -2.405 |
| `Cc1cc(Br)c(O)c(-c2nc(N3CCOCC3)sc2C)c1` | 6.216 |
| `COCC(=O)N1CCCC(C(=O)N(C)CCCc2cnn(C)c2)C1` (configuration not stated) | 6.186 |
| `CN(CCNC(=O)N1CCN(Cc2ccon2)CC1)C1CCCC1` | 16.59 |
| `COc1cc(C(=O)N(CCC#N)Cc2ccccn2)ccc1C` | 11.14 |
| `COc1cccc(C(C(=O)O)N2CCCN(c3ccnc(C)c3)CC2)c1` (configuration not stated) | 13.23 |
| `Cc1nc(CN2CCO[C@@H]3CN(Cc4ccsc4)C[C@@H]3C2)cs1` | 13.07 |
| `CC(C(N)=O)n1nc(-c2cccs2)cc(N)c1=O` (configuration not stated) | 11.11 |
| `Cc1cc2nc(-c3ccccc3)cc(NCC3CCCOC3)n2n1` (configuration not stated) | 12.24 |
| `Fc1ccc(C(NCc2nnc(C3CC3)o2)C2CCC2)cc1` (configuration not stated) | 16.67 |
| `Cc1c(C(C)NC(=O)Nc2ccccc2F)cnn1C` (configuration not stated) | -0.7692 |
| `Cc1cn2nc(N3CCN(Cc4c(C)noc4C)CC3)sc2n1` | 12.89 |
| `CN1CCN(C(=O)C2(NC(N)=O)CCCCC2)Cc2ccccc21` | 16.62 |
| `CN1CCN(C2CCN(CC(=O)NCC(F)(F)F)CC2)C1=O` | 6.103 |
| `Cc1ccc(NC2CCN(C(=O)Cc3csc(C)n3)CC2)nn1` | 12.42 |
| `CCN1CCc2[nH]cnc2C12CCN(c1ncc(C(=O)O)cc1Cl)CC2` | 8.333 |
| `CCn1ccnc1CN1CCC(Oc2cccc(F)c2)(C(=O)O)CC1` | 7.216 |
| `O=C(c1ccccn1)N1CCC(Oc2cccnc2)CC1` | 10.87 |
| `Cc1cc(C(=O)NCc2ccnc(OCC(F)(F)F)c2)on1` | 3.279 |
| `Cc1noc(C)c1-c1cccc(C2CN(CC(=O)N(C)C)CCO2)n1` (configuration not stated) | 14.06 |
| `Cc1nc(CC(=O)N2c3ccccc3OCC2C)cs1` (configuration not stated) | 6.211 |
| `COc1ccc(C(C)NS(=O)(=O)c2ccc3c(c2)CCC(=O)N3)cc1F` (configuration not stated) | 6.835 |
| `O=C(c1cnccn1)N1CCc2onc(CN3CCCC3)c2C1` | 4.53 |
| `COC(=O)CN1CCCN(C(=O)CCOc2cccc(C)c2C)CC1` | 21.13 |
| `Cc1ccc(NC2CCN(C(=O)Cc3c(C)noc3C)CC2)nn1` | 17.89 |
| `CCn1cc(CNc2ccc(N(C)CCOC)cn2)cn1` | 15.25 |
| `CN(Cc1ccc2c(c1)OCO2)C(=O)C1CC(c2cccc(F)c2)=NO1` (configuration not stated) | 12.84 |
| `CS(=O)(=O)NC1CCN(C(=O)c2ccc(Br)cc2)C1` (configuration not stated) | 8.675 |
| `CN(C)C(=O)c1cc2c(nc1NCC1CC1)CCNCC2` | -2.03 |
| `Cn1cc(CN2C[C@H]3CCC[C@@H](CNc4ncccn4)[C@H]3C2)cn1` | 8.609 |
| `Cc1cc(-c2nnn(CCNS(C)(=O)=O)n2)ccc1F` | 24.5 |
| `CCN1C[C@H]2CCN(C(=O)Cc3cccc(OC)c3)CC[C@H]2S1(=O)=O` | 14.29 |
| `COC(C)c1nc(CN2CCCNCC2)cs1` (configuration not stated) | 11.71 |
| `CNc1ncc(CN(C)C(=O)c2cccc(CC3CCNCC3)c2)cn1` | 5.389 |
| `CCn1c(CN2CCCN(C(=O)OC)CC2)nc2c(F)cccc21` | 24.49 |
| `COc1cccc(C2CCCN2C(=O)c2cc3c([nH]c2=O)CCC3)c1` (configuration not stated) | 18.1 |
| `Cc1cnc(C(=O)N2CCC(C(=O)c3cc(F)ccc3F)CC2)cn1` | 19.89 |
| `O=C(c1ccc2nccn2c1)N1CCC(CCn2cccn2)CC1` | 17.01 |
| `Cc1cccc(C(=O)N2CCN(S(C)(=O)=O)[C@@H](C)C2)c1Cl` | 17.96 |
| `Cc1nc(C)n(CC2CCCCN2CCOc2cccc(C#N)c2)n1` (configuration not stated) | 16.06 |
| `CC(C)Nc1nc2c(c(NC3CC3)n1)CN(C(=O)c1ccsc1)CC2` | 21.01 |
| `CCC(NC(=O)C1CCN(S(C)(=O)=O)CC1)c1ccc(C)c(C)c1` (configuration not stated) | 13.35 |

Some entries from above, unchanged:

- Cc1cc(Br)c(O)c(-c2nc(N3CCOCC3)sc2C)c1 : 6.216%
- CCN1C[C@H]2CCN(C(=O)Cc3cccc(OC)c3)CC[C@H]2S1(=O)=O : 14.29%
- COc1ccc(C(C)NS(=O)(=O)c2ccc3c(c2)CCC(=O)N3)cc1F (configuration not stated) : 6.835%
- COc1cc(CN2CCCC(Nc3cccc(F)c3)C2)cc(OC)c1O (configuration not stated) : 8.541%
- CN(Cc1cccc(C#N)c1)S(=O)(=O)N1CCOCC1 : 6.266%

Data taken from ChEMBL document CHEMBL3988442, “University of Dundee, Small-Polar-MMV Screening Library” (2021).